Record: PubChem BioAssay AID504793 (Drosophila RNAi Screening Center, 2011)
Aim: 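Knock-downs allowing continued mitosis even though DNA is damaged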 (primary screen). Cell system: Drosophila S2R+ cells. Reagents: long dsRNA against Drosophila genes, about 0.25 µg dsRNA per well. Time to read-out: 4 days of dsRNA, then 4 hours of drug before read-out. Challenge: doxorubicin 0.5 µM for 4 hours to cause double-strand breaks, in cells also given a low, harmless dose of dsRNA against nbs to sensitise the assay. Measurement: 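Per-well count of mitotic cells stained for phospho-histone H3 after doxorubicin exposure, used as mitotic index; counts are raw and not normalised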. Reading the numbers: mitotic cells: higher = more cells in mitosis, weaker G2 arrest. Call rule: 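Genes are called active only when high mitotic counts were reproduced with independent dsRNAs and mitosis was checked for delay without damage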. Meaning of the calls: active = confirmed in follow-up tests; inactive = not confirmed.
The screen tested about 23,000 reagents; below is a random part of those that have a named target and a result. Of all reagents, 62 (0.27%) are marked active. 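Calls come from follow-up tests whose scores are not deposited, so confirmed genes may have low counts here; counts are not normalised per plate.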 Raw values are not corrected between plates. Names joined by + are all predicted targets of the reagent. Reagent sequences are not shown.

After knock-down of ScsbetaA [DRSC14446], the screen gave mitotic cells, replicate 1 = 3; inactive. With knock-down of ScsbetaA [DRSC27770] the results were mitotic cells, replicate 1 = 6; inactive. Knock-down of CG13083 [DRSC02187] gave: mitotic cells, replicate 1 = 4; inactive. Against CG13083 [DRSC28424] the deposit lists mitotic cells, replicate 1 = 9; inactive. CG4757 [DRSC14130] showed mitotic cells, replicate 1 = 6; inactive. For CG31928 [DRSC00293], the entry reads mitotic cells, replicate 1 = 10; inactive.

Against Ir85a [DRSC14382] the deposit lists mitotic cells, replicate 1 = 7; inactive. Against Ir85a [DRSC29077], the entry reads mitotic cells, replicate 1 = 4; inactive. Knock-down of nerfin-1 [DRSC08729] resulted in: mitotic cells, replicate 1 = 4; inactive. Against TfIIFalpha [DRSC12608], the values are mitotic cells, replicate 1 = 10; inactive. Depletion of TfIIFalpha [DRSC26379] came out at: mitotic cells, replicate 1 = 6; inactive. CG4968 [DRSC02794] showed mitotic cells, replicate 1 = 9; inactive.

Against CG4968 [DRSC29740], the entry reads mitotic cells, replicate 1 = 13; inactive. After knock-down of CG9497 [DRSC03234], the screen gave mitotic cells, replicate 1 = 3; inactive. After knock-down of CG9497 [DRSC25510], the screen gave mitotic cells, replicate 1 = 10; inactive. CG10081 [DRSC05962] gave mitotic cells, replicate 1 = 2; inactive. CG10081 [DRSC24787] gave mitotic cells, replicate 1 = 8; inactive. Silencing of Hrb87F [DRSC16708] resulted in: mitotic cells, replicate 1 = 3; inactive.

After knock-down of Hrb87F [DRSC29600], the record shows mitotic cells, replicate 1 = 6; inactive. Depletion of Pgi [DRSC07507] came out at: mitotic cells, replicate 1 = 7; inactive. Sem1 [DRSC02282] scored mitotic cells, replicate 1 = 7; inactive. Sem1 [DRSC30061] scored inactive. With knock-down of CG12898 [DRSC06213], the record shows mitotic cells, replicate 1 = 12; inactive. After knock-down of Acsf2 [DRSC02172], the screen gave mitotic cells, replicate 1 = 5; inactive.

For Acsf2 [DRSC27832], the entry reads mitotic cells, replicate 1 = 8; inactive. Mal-A8 [DRSC07234] gave mitotic cells, replicate 1 = 10; inactive. CG10584 [DRSC11624] scored mitotic cells, replicate 1 = 12; inactive.

Single entries from above:
Under “mitotic cells, replicate 1”, nerfin-1 [DRSC08729] shows 4
Under “mitotic cells, replicate 1”, CG12898 [DRSC06213] reads 12
Entry of Sem1 [DRSC02282] under “Outcome”: inactive
ScsbetaA [DRSC27770], Outcome = inactive
Value for Hrb87F [DRSC29600] in “Outcome”: inactive

Continued:
CG15256 [DRSC01940] scored mitotic cells, replicate 1 = 6; inactive. With knock-down of CG31883 [DRSC02561], the record shows mitotic cells, replicate 1 = 1; inactive. For U4-U6-60K [DRSC10624] the deposit lists mitotic cells, replicate 1 = 8; inactive. With knock-down of RpS15Ab + RpS15Aa [DRSC06129], the record shows mitotic cells, replicate 1 = 3; inactive. For RpS15Ab + RpS15Aa [DRSC19831] the deposit lists mitotic cells, replicate 1 = 8; inactive. For CG8773 [DRSC16444] the deposit lists mitotic cells, replicate 1 = 8; inactive.

With knock-down of CG8773 [DRSC23903], the record shows mitotic cells, replicate 1 = 11; inactive. Ntf-2r [DRSC02019] showed mitotic cells, replicate 1 = 2; inactive. Against CG9021 [DRSC03128] the deposit lists mitotic cells, replicate 1 = 7; inactive. Silencing of CG14837 [DRSC10207] came out at: mitotic cells, replicate 1 = 5; inactive. Knock-down of br [DRSC17691] resulted in: mitotic cells, replicate 1 = 4; inactive. After knock-down of br [DRSC17789] the results were mitotic cells, replicate 1 = 4; inactive.

br [DRSC25765] scored mitotic cells, replicate 1 = 9; inactive. After knock-down of Myt1 [DRSC11228], the record shows mitotic cells, replicate 1 = 16; active. For Myt1 [DRSC30071] the deposit lists mitotic cells, replicate 1 = 8; active. After knock-down of eIF2beta [DRSC11341], the record shows mitotic cells, replicate 1 = 8; inactive. Knock-down of eIF2beta [DRSC28025] gave: inactive.
